Two substances from article PMC9820592, “Novel Chiral Ru(II) Complexes as Potential c-myc G-quadruplex DNA Stabilizers Inducing DNA Damage to Suppress Triple-Negative Breast Cancer Progression” (International Journal of Molecular Sciences, 2022) can be followed below.

For data set [1], the system named is c-myc G-quadruplex DNA. In words: UV titration (electronic absorption) with c-myc G4 DNA. Type of data set: binding, human. The settings on record: complex 20 μM, Tris-HCl-KCl buffer pH 7.4.
Data set [2] concerns c-myc G-quadruplex DNA. Kind of data set: CD spectrum upon addition of c-myc G4 DNA. Type of data set: binding, human. Conditions: complex 20 μM; positive signal for Λ, negative signal for Δ.
Data set [3] has as its system MDA-MB-231 cells. Kind of data set: Cellular localization by confocal microscopy. Type of data set: cell-based, human. Conditions: 24 h.

Consider Λ-[Ru(bpy)2(3-NBEDPPZ)](ClO4)2 [Λ−3], for which the hypochromism in data set [1] was found to be 17.4%. Also, the “strength of the CD signal at 290 nm after addition of c-myc G4 DNA” value in data set [2] is given as 63.1%. In addition, the cellular localization entry was “could enter the cytoplasm” in data set [3] (5 μM) and “the majority of the complex remained abundant in the cytoplasm” in data set [3] (10 μM).

As to Δ-[Ru(bpy)2(3-NBEDPPZ)](ClO4)2 [Δ−3], the hypochromism in data set [1] stood at 9.91%. For the same substance, the “strength of the CD signal at 290 nm after addition of c-myc G4 DNA” value in data set [2] amounted to 62.6%. The cellular localization result in data set [3] (5 μM) is reported as “could enter the cell nucleus”; in data set [3] (10 μM), “further increased the enrichment in the cell nucleus”.
